Among the data in article PMC11237546 are binding values, retold here.

Chains of the proteins cited; added tags and fusions are not shown.
UniProt Q96EB6: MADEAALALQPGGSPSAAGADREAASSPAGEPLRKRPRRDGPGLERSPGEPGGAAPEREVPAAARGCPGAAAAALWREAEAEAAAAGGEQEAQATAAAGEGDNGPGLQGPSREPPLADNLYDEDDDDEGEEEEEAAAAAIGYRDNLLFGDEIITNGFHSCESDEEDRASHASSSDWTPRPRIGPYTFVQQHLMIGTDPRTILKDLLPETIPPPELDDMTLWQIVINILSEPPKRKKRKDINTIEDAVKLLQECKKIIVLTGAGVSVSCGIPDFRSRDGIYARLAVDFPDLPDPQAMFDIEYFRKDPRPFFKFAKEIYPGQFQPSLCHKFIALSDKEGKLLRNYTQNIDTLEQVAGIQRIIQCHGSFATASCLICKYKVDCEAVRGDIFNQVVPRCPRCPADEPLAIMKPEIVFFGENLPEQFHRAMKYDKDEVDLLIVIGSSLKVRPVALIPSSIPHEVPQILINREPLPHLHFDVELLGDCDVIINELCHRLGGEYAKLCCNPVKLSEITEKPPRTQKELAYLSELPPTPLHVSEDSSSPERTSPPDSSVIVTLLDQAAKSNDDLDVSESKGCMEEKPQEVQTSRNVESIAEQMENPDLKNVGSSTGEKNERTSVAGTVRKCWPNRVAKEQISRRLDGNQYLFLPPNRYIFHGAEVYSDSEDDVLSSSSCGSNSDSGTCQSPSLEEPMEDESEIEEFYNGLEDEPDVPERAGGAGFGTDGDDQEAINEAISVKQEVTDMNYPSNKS
UniProt O96017: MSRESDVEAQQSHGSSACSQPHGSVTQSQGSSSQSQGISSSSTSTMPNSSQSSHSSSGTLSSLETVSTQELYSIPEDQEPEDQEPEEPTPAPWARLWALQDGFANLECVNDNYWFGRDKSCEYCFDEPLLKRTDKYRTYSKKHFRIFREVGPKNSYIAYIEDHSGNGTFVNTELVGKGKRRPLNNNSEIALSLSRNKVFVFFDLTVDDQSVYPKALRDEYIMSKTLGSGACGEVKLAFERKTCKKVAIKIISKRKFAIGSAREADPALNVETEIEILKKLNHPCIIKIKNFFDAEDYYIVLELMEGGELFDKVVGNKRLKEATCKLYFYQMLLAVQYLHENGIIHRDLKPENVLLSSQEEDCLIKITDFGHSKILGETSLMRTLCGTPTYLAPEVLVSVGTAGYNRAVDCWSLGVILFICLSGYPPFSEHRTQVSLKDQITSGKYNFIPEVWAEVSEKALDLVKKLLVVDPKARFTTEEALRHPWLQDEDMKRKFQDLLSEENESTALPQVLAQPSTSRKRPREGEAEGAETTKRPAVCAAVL

The assay concerns the target SIRT1 (human (endogenous in N/Tert-1, HFK and U2OS cells)) (UniProt Q96EB6). Briefly: co-IP.

These are yes or no findings as the source states them, for the method shown. Binding seen in cells or lysates may run through a third protein. Some binding calls cover weakened binding; strength is not graded here.

Consider “CHK2 (from UniProt O96017 1-543) (enzyme)”, for which the binding entry was “binds”.
